This passage reports binding results from article PMC7863940.

The chains behind the UniProt entries cited, without tags or fusion partners. Where a name states a change or a piece, a line headed by the entry shows the natural chain unless it says otherwise. Residues count along the entry.
UniProt Q6PHU5, residues 74-825: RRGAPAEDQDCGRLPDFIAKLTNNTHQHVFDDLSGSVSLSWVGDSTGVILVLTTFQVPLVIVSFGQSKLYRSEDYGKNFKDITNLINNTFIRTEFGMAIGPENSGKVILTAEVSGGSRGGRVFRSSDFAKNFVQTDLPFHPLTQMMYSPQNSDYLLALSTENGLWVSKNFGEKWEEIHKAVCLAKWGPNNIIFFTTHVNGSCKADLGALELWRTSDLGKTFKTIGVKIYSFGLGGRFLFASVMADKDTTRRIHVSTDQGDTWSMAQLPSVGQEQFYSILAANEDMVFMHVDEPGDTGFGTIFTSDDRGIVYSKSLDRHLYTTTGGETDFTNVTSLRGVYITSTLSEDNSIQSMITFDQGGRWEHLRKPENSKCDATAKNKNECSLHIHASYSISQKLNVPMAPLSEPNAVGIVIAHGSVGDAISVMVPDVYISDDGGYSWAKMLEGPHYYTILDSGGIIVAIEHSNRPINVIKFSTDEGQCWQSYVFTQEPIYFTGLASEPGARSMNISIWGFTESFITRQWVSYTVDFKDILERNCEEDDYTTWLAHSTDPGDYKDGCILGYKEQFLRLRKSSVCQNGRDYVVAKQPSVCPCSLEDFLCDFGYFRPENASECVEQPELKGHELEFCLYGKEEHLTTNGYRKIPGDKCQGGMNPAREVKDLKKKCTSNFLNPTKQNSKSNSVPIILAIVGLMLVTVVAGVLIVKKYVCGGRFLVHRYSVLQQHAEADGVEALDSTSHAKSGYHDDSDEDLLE

The assay deals with T1, glucose transporter-4 (Glut4) (mouse (endogenous in 3T3L1)) (UniProt P14142).
T1 sequence: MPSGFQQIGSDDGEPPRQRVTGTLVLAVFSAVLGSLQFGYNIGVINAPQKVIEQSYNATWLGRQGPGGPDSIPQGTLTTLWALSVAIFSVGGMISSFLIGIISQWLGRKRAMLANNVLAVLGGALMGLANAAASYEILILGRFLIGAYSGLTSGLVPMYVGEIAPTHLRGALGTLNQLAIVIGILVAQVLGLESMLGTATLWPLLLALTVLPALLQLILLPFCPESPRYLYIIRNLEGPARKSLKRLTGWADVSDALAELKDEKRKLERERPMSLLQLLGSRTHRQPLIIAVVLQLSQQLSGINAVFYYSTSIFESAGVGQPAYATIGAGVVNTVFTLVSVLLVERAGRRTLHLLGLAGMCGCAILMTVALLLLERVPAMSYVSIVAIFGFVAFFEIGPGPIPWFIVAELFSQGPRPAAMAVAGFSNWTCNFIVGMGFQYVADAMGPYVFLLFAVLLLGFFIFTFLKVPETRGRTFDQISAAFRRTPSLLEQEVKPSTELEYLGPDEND
Kind of assay: co-IP; 200 µL of 1 µg/µL 3T3-L1 lysate, precleared with Protein A/G agarose, rocked with 2 µg Glut4-agarose antibody overnight at 4 °C; western blot for sortilin and Glut4; control cells and cells over-expressing Sort^17b (48 h). (In general: A western blot detects proteins with antibodies after separation by electrophoresis.)

These are yes or no findings as the source states them, for the method shown. In cells and extracts the contact can be indirect. Some results given as binding are weak or reduced against the parent protein; the word gives no strength. Sequences can lack the tags named with a protein.

With “sortilin wildtype splice variant (Sort^WT) (from UniProt Q6PHU5 74-825)”, the binding result was “binds”.
